Measured values taken from patent publication US12616713B2, “Methods for enhancing vascular density” (priority 2016, dated 2026).
At least one compound was matched to its structure with a doubt left.

Tests used:
Type in all cases: in vivo, mouse
VEGFR = experiment: VEGF signaling in exercised mice treated with axitinib (Western blot, serum ELISA); details: axitinib 30 mg/kg/day
C57BL/6J mice [1] = experiment: Treadmill endurance testing; details: exercise training, axitinib 30 mg/kg/day via food, NMN 400 mg/kg/day, high intensity test
Method: Endurance testing. Treadmill tests were carried out on a 1050-RM Exer 3/6 Open Treadmill (Columbus Instruments, OH). Mice were acclimatized to the treadmill system for 3 days prior to endurance testing by running at 10-15 m/min for 20 min. In low intensity endurance testing, the speed started at 5 m/min for 5 min (warm up), and then the speed was increased by 1 every minute until 21 m/min and kept constant. In high intensity endurance testing, the speed started at 13 m/min for 5 min (warm up) at 5° inclination, and then the speed was increased by 1 every minute until 20 m/min and kept constant for 20 min. Every 20 min, the speed was increased by 5 m/min and held constant for 20 min. Mice were considered exhausted when they sat on the shocker plate for more than 10 sec without attempting to reinitiate running.

C57BL/6J mice [2] = experiment: Treadmill exercise training with or without NMN, muscle capillaries; details: axitinib 30 mg/kg/day via food, NMN 400 mg/kg/day
Method: Mice were acclimatized to the treadmill system for 3 days prior to the start of exercise training by running at 10 m/min for 20 min. The animals that were successfully acclimatized were then subjected to running at 15-20 m/min at 5° inclination for 30 minutes once daily for one month. Freshly isolated whole quadriceps and gastrocnemius muscle samples were mounted in OCT compound (Tissue-Tek), placed in an isopentane bath and slowly cooled in liquid nitrogen. Transverse sections at 20 μm-thickness were sectioned on a cryostat (Leica). The sections were fixed in pre-cooled acetone (-20° C.) for 10 min and washed with PBS. […] Slides were washed with PBST and then incubated with anti-rat Alexa Fluor 488-conjugated (Life Technologies) and anti-rabbit Alexa Fluor 594-conjugated (Life Technologies) antibodies diluted to 1:500 in blocking buffer for 2 h at room temperature. Slides were washed again with PBST and mounted with Fluoroshield with DAPI mounting medium (Sigma). Images were acquired using a confocal fluorescence microscope (Nikon A1). Quantification of capillaries and capillary density were performed using ImageJ software. TUNEL staining was performed in muscle sections using in situ BrdU-Red DNA fragmentation (TUNEL) assay kit (Abcam) as per manufacturer's protocol.

CNC(=O)c1ccccc1Sc1ccc2c(/C=C/c3ccccn3)n[nH]c2c1 [Axitinib, reference compound]
serum VEGF levels (VEGFR): increasing serum VEGF levels | phosphorylation of VEGFR (VEGFR; quadriceps homogenates): inhibiting phosphorylation of VEGFR | improvement in exercise capacity (C57BL/6J mice [1]): blocked | NMN-mediated increases in capillary density (C57BL/6J mice [2]): blocked NMN-mediated increases in capillary density
